These are yes or no findings as the source states them, for the method shown. Some binding calls cover weakened binding; strength is not graded here.
Biological target: human M-CSF (macrophage colony stimulating factor) (human) (UniProt P09603)
Test: ELISA screening of hybridoma clones; affinity analysis

Protein sequences, listed by entry. Tags and fused reporters are not part of them. Lines headed by an entry give the natural chain unless they say otherwise; changes in a name come on top.
UniProt P09603: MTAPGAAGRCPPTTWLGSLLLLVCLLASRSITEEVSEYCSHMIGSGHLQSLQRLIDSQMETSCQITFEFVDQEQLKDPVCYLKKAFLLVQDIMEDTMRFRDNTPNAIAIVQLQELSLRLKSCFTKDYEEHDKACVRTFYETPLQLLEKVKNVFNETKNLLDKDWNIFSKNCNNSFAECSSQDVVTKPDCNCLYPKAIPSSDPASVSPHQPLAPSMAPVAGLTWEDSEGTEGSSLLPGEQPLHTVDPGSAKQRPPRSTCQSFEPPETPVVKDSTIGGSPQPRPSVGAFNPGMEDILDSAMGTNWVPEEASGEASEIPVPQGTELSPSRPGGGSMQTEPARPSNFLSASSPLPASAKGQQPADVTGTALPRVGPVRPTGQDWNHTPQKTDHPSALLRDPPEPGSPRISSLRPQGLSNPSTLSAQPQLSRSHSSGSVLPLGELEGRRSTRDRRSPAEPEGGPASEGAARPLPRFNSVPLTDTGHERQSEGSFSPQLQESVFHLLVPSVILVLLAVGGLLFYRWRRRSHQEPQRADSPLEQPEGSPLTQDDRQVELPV

B1: M-CSF-specific murine antibody MC1 (antibody, mouse IgG2a, kappa, V domains shown)
VH: EVKLVESGGGLVQPGGSLKLSCATSGFTFSDYYMYWVRQTPEKRLEWVAYISNGGGSTYYPDTVKGRFTISRDNAKNTLYLQMSRLKSEDTAMYYCARQGSYGYPFAYWGQGTLVTVSA
VL: AIQMTQTTSSLSASLGDRVTISCSASQGISNYLNWYQQKPDGTVKLLIYYTSSLHSGVPSRFSGSGSGTDYSLTISNLEPEDIATYYCQQYSKLPWTFGGGTKLEIKR
With B1 the binding was “binds”.
